Measured values reported in PMC8465852, “The HMGB Protein KlIxr1, a DNA Binding Regulator of Kluyveromyces lactis Gene Expression Involved in Oxidative Metabolism, Growth, and dNTP Synthesis”.

Molecular target: T1, KlIxr1 (Kluyveromyces lactis) (UniProt Q6CMQ4)
T1 sequence (looked up): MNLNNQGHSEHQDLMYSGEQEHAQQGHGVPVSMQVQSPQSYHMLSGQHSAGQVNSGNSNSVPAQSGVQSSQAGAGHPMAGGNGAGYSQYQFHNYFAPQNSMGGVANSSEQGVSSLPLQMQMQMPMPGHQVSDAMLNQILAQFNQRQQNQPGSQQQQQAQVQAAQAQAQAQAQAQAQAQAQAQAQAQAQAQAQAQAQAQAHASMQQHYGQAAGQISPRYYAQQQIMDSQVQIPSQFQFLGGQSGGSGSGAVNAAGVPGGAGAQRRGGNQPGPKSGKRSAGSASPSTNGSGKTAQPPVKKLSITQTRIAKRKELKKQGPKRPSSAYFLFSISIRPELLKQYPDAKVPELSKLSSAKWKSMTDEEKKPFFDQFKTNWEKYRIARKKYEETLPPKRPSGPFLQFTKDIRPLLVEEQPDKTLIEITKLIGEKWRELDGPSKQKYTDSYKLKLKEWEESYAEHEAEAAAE
Assay: competition with a labelled probe
Conditions: 200 nM protein, EMSA: 4 C 30 min, 500 nM DNA, 1 ug protein, 1 ug calf thymus DNA, buffer by reference, recombinant protein, residues …, protein details: N-terminal 6xHis, label: none (competitor)

Row | Sequence | binding result (FA vs labeled HEM13A) | binding result (FA vs labeled HEM13B)
1 | ATCTTGAATGTATGTGCGCACAGCCTCTCC (double strand) [HEM13A mutant] | binds more weakly | 
2 | TGGCCCAGCCTCTTGCGCACTCGTACCGGT (double strand) [HEM13B mutant] |  | binds more weakly

The exact form of at least one protein or probe is not confirmed. Weaker means in comparison with the reference protein, sequence or condition of that experiment. At least one verdict was read from the data and is not stated in words by the source. Where a protein sequence is shown, tags need not be part of it.
